{"source": "patent US8293489B2", "about": "“Methods for detection of biological substances” (priority 2007, dated 2012)", "experiment": "96 plate colorimetric ELISA comparison of biological substances in various bodily fluids", "set-up": "species or system human", "data": [{"molecule": "P Selectin (protein, UniProt P16109 42-830, looked up) P-selectin: WTYHYSTKAYSWNISRKYCQNRYTDLVAIQNKNEIDYLNKVLPYYSSYYWIGIRKNNKTWTWVGTKKALTNEAENWADNEPNNKRNNEDCVEIYIKSPSAPGKWNDEHCLKKKHALCYTASCQDMSCSKQGECLETIGNYTCSCYPGFYGPECEYVRECGELELPQHVLMNCSHPLGNFSFNSQCSFHCTDGYQVNGPSKLECLASGIWTNKPPQCLAAQCPPLKIPERGNMTCLHSAKAFQHQSSCSFSCEEGFALVGPEVVQCTASGVWTAPAPVCKAVQCQHLEAPSEGTMDCVHPLTAFAYGSSCKFECQPGYRVRGLDMLRCIDSGHWSAPLPTCEAISCEPLESPVHGSMDCSPSLRAFQYDTNCSFRCAEGFMLRGADIVRCDNLGQWTAPAPVCQALQCQDLPVPNEARVNCSHPFGAFRYQSVCSFTCNEGLLLVGASVLQCLATGNWNSVPPECQAIPCTPLLSPQNGTMTCVQPLGSSSYKSTCQFICDEGYSLSGPERLDCTRSGRWTDSPPMCEAIKCPELFAPEQGSLDCSDTRGEFNVGSTCHFSCDNGFKLEGPNNVECTTSGRWSATPPTCKGIASLPTPGVQCPALTTPGQGTMYCRHHPGTFGFNTTCYFGCNAGFTLIGDSTLSCRPSGQWTAVTPACRAVKCSELHVNKPIAMNCSNLWGNFSYGSICSFHCLEGQLLNGSAQTACQENGHWSTTVPTCQAGPLTIQEALTYFGGAVASTIGLIMGGTLLALLRKRFRQKDDGKCPLNPHSHLGTYGVFTNAAFDPSP", "values": [{"measurement": "concentration in NASAL MUCUS", "value": "1.64 ± 0.34", "unit": "pg/mL"}, {"measurement": "concentration in PLASMA", "value": "30.4 ± 1.7", "unit": "pg/mL"}, {"measurement": "concentration in SALIVA", "value": 0, "unit": "pg/mL"}, {"measurement": "concentration in URINE", "value": 0, "unit": "pg/mL"}]}, {"molecule": "Placental Growth Factor (PGF) (protein, UniProt P49763 19-221, looked up) Placenta growth factor: LPAVPPQQWALSAGNGSSEVEVVPFQEVWGRSYCRALERLVDVVSEYPSEVEHMFSPSCVSLLRCTGCCGDENLHCVPVETANVTMQLLKIRSGDRPSYVELTFSQHVRCECRHSPGRQSPDMPGDFRADAPSFLPPRRSLPMLFRMEWGCALTGSQSAVWPSSPVPEEIPRMHPGRNGKKQQRKPLREKMKPERCGDAVPRR", "values": [{"measurement": "concentration in NASAL MUCUS", "value": "170 ± 50", "unit": "pg/mL"}, {"measurement": "concentration in PLASMA", "value": "11 ± 4", "unit": "pg/mL"}, {"measurement": "concentration in SALIVA", "value": "9 ± 3", "unit": "pg/mL"}, {"measurement": "concentration in URINE", "value": "12 ± 4", "unit": "pg/mL"}]}, {"molecule": "Thymus and Activation Regulated Chemokine (TARC) (protein, UniProt Q92583 24-94, looked up) C-C motif chemokine 17: ARGTNVGRECCLEYFKGAIPLRKLKTWYQTSEDCSRDAIVFVTVQGRAICSDPNNKRVKNAVKYLQSLERS", "values": [{"measurement": "concentration in NASAL MUCUS", "value": "1303 ± 830", "unit": "pg/mL"}, {"measurement": "concentration in PLASMA", "value": "875 ± 240", "unit": "pg/mL"}, {"measurement": "concentration in SALIVA", "value": 0, "unit": "pg/mL"}, {"measurement": "concentration in URINE", "value": 0, "unit": "pg/mL"}]}, {"molecule": "Alpha Fetoprotein (AFP) (protein, UniProt P02771 19-609, looked up) Alpha-fetoprotein: RTLHRNEYGIASILDSYQCTAEISLADLATIFFAQFVQEATYKEVSKMVKDALTAIEKPTGDEQSSGCLENQLPAFLEELCHEKEILEKYGHSDCCSQSEEGRHNCFLAHKKPTPASIPLFQVPEPVTSCEAYEEDRETFMNKFIYEIARRHPFLYAPTILLWAARYDKIIPSCCKAENAVECFQTKAATVTKELRESSLLNQHACAVMKNFGTRTFQAITVTKLSQKFTKVNFTEIQKLVLDVAHVHEHCCRGDVLDCLQDGEKIMSYICSQQDTLSNKITECCKLTTLERGQCIIHAENDEKPEGLSPNLNRFLGDRDFNQFSSGEKNIFLASFVHEYSRRHPQLAVSVILRVAKGYQELLEKCFQTENPLECQDKGEEELQKYIQESQALAKRSCGLFQKLGEYYLQNAFLVAYTKKAPQLTSSELMAITRKMAATAATCCQLSEDKLLACGEGAADIIIGHLCIRHEMTPVNPGVGQCCTSSYANRRPCFSSLVVDETYVPPAFSDDKFIFHKDLCQAQGVALQTMKQEFLINLVKQKPQITEEQLEAVIADFSGLLEKCCQGQEQEVCFAEEGQKLISKTRAALGV", "values": [{"measurement": "concentration in NASAL MUCUS", "value": 0, "unit": "pg/mL"}, {"measurement": "concentration in PLASMA", "value": "2700 ± 500", "unit": "pg/mL"}, {"measurement": "concentration in SALIVA", "value": 0, "unit": "pg/mL"}, {"measurement": "concentration in URINE", "value": 0, "unit": "pg/mL"}]}]}
